Laboratory results reported in article PMC9374683.
These are yes or no findings as the source states them, for the method shown. A result given as binding can be weak or reduced; the word gives no strength. Sequences can lack the tags named with a protein.

Molecular target: T1, HIS6-tagged CtpC (M. tuberculosis) (UniProt P9WPT5)
T1 sequence: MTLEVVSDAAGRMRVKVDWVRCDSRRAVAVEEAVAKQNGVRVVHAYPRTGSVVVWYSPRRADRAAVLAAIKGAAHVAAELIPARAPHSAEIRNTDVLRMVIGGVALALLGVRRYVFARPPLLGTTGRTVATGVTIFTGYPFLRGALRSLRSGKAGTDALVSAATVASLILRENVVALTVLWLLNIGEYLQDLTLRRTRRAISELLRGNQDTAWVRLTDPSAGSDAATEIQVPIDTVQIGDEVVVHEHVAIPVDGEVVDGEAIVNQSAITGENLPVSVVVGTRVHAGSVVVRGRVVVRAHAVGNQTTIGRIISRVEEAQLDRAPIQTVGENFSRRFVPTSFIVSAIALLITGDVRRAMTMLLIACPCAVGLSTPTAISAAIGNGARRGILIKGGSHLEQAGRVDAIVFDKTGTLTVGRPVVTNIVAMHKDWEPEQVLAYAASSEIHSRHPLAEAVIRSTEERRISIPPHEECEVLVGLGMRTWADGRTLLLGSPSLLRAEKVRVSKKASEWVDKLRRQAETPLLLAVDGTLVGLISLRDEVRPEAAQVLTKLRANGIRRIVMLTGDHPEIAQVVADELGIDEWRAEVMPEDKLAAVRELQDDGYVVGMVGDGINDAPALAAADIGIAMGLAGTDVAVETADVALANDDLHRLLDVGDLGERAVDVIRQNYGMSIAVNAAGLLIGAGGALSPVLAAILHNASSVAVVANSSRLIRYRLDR
Test: native gel or EMSA; Blue-native PAGE (3-12% Bis-Tris) of membrane proteins solubilised with 0.25% DDM from M. smegmatis Δ2 membrane fractions; PVDF blot revealed by FLAG and HIS6 immuno-detection

Substance: FLAG-tagged PacL1 (M. tuberculosis)
- binding: binds
